## Results of single-concentration screens

By UniProt entry, the sequences of proteins in these tests, tags left out. Residues count along the entry.
UniProt Q8IDJ8, 1-583: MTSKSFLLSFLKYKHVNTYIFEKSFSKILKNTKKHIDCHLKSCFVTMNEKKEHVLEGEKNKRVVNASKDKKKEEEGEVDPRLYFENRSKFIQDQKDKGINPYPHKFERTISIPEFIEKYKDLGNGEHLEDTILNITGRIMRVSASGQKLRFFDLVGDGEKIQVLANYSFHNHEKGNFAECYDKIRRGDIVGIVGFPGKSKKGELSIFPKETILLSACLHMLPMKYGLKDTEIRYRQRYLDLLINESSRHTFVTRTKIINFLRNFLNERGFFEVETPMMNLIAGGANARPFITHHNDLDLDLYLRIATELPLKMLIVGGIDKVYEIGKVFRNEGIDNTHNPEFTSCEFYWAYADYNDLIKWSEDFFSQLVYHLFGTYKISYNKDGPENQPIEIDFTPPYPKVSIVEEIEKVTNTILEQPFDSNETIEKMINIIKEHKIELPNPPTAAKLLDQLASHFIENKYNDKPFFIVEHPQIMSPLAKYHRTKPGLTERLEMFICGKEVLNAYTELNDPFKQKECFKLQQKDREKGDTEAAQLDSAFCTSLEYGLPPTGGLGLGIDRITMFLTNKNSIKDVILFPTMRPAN

Source: ChEMBL document CHEMBL3988442, “University of Dundee, Small-Polar-MMV Screening Library” (2021).

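Enzyme assay of the cytosolic lysyl-tRNA synthetase in 384-well plates, read by luminescence. Target: Lysine-tRNA ligase, Plasmodium falciparum 3D7 (UniProt Q8IDJ8). Compounds at 30 µM. Direction is inferred from only a few compounds that gave an IC50; most scored high, so higher reads as stronger inhibition. About 69,000 compounds were tested under these conditions; 0.071% (about 49) showed 50% or more at least once.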

Results are given as percent effect.
The controls that fix the scale are not given in the record; negative values are as filed.
The compounds are a random part of those screened.

Cc1nc2n(n1)CC(NCc1c(Cl)ccc3cccnc13)CC2 (stereo not given) gave 7.342%.
CC1CN(C(=O)c2cccc(OCc3cscn3)c2)CCO1 (stereo not given) gave 1.345%.
O=C(Nc1ccccc1)c1nn(C2CCS(=O)(=O)C2)c2c1CCCC2 (stereo not given) gave 4.655%.
O=C(c1ccccc1F)N1C[C@@H]2COC[C@]2(COCc2cccnc2)C1 gave -3.597%.
O=C(O)[C@@H]1CCN(C(=O)Cc2ccccn2)[C@@H]1c1ccc(F)cc1 gave 4.547%.
CC/C=C(\C)CN1CCC(CNC(=O)c2ccnc(N)c2)C1 (stereo not given) gave 1.684%.
CN1CCCN(C(=O)c2cc(-c3cc[nH]n3)n3ccccc23)CC1 gave 6.754%.
CCN(CC)S(=O)(=O)CCNc1nnc(C(C)C)s1 gave -1.304%.
CCOCC(=O)N1C[C@@H]2CC[C@H](C1)N(Cc1ccccn1)C2=O gave 3.615%.
CCN1C(=O)CCC12CCN(S(=O)(=O)c1ccccc1)CC2 gave 4.497%.
CN(Cc1ccccc1)C(=O)[C@@H]1Cc2[nH]cnc2CN1C gave 1.773%.
CN1CCN(c2cc(CCNC(=O)C3CCC3)nc(C3CC3)n2)CC1 gave 10.77%.
COc1cc(CN(C)CCc2ccncc2)c(SC)cc1OC gave 4.703%.
COc1ccccc1C(C)NC(=O)NCCC(=O)NC1CCCCC1 (stereo not given) gave -0.2505%.
Cc1ccc(CN2CCc3c(C(=O)N(C)C)nn(C)c3C2)s1 gave 1.155%.
c1cnc2c(c1)CN(C1CCOC1)CCN2CC1CC1 (stereo not given) gave 4.923%.
Cc1cnn(CC2CCCCN2C(=O)c2n[nH]c3ccccc23)c1 (stereo not given) gave -3.543%.
COCc1cc(O)nc(C2CCCN(Cc3cccc(Cl)c3Cl)C2)n1 (stereo not given) gave 3.523%.
CC(CNC(=O)c1cnc[nH]1)Oc1ccccc1Br (stereo not given) gave 0.477%.
CCc1nc(CNc2ccc(C(=O)NCc3ccco3)cc2C)no1 gave 4.755%.
O=C(C[C@@H]1COC[C@H]2CN(Cc3ccsc3)C[C@@H]12)N1CCCC1 gave 4.29%.
O=C(c1cccn1Cc1cccs1)N1CCN(C(=O)C2CC2)CC1 gave 0.9854%.
Cc1ccc(C)c(CC(=O)NC2CCCS(=O)(=O)C2)c1 (stereo not given) gave -4.563%.
CCN(CC)CCCNc1nc(C)nc2c1CCN(C)C2 gave -0.07114%.
Cc1cc(NC(=O)CNCc2csc(-c3ncccn3)n2)ccc1Cl gave -0.7704%.
CCC(=O)N1CCC(c2nc(C)c3c(n2)N(C)CCC3)CC1 gave 4.518%.
CN1CCC(n2nc(Cc3cccs3)nc2-c2ccncc2)CC1 gave 4.984%.
COc1ccc2cc(CNc3c(C)nn(C(C)C)c3C)ccc2c1 gave 9.248%.
CCNC(=O)N1CCN(C(=O)c2cc(Cl)cc3cccnc23)CC1 gave 2.813%.
CCNC(=O)CNC(=O)Nc1cccc(Cl)c1SC(F)F gave 6.058%.
COCC1N(S(=O)(=O)c2cn(C)cn2)[C@H]2CC[C@]1(O)CC2 (stereo not given in full) gave 5.245%.
CN(CCOc1ccccc1F)C1CCOC1=O (stereo not given) gave 5.953%.
CCN1CC2(CC1=O)CN(C(C)=O)CCN(C(=O)c1ccco1)C2 (stereo not given) gave 2.756%.
CCC(Oc1ccccc1)c1nn2c(CN(CC)CC)nnc2s1 (stereo not given) gave 2.995%.
CCc1nccn1C1CCCN(C(=O)c2ccc3[nH]nnc3c2)C1 (stereo not given) gave 5.215%.
CC(C)OCCCN(CC(=O)N1CCNCC1)C(=O)c1cccc(Cl)c1 gave 8.455%.
COc1ccc(C(=O)NC2CC2)c(OC2CCN(C3CCC3)CC2)c1 gave 3.448%.
CN1CC(=O)N(c2ccsc2)CC12CCN(C(=O)c1ccc[nH]1)C2 (stereo not given) gave 1.818%.
CNCC(=O)Nc1cccc(-c2cnc(NCCO)nc2)c1 gave 6.321%.
CCC(CO)N(Cc1ccco1)C(=O)c1cccc(C)c1O (stereo not given) gave 2.55%.
COc1ccc(C[C@H]2CN(c3cc(OC)ncn3)CC[C@@H]2OC)cc1 gave 0.7421%.
COc1ccc(C(=O)N2C[C@@H](C(=O)O)[C@H](c3ccccc3)C2)c(C)c1 gave -0.2336%.

Repeated from the top, 4 entries:

Compound	percent effect
Cc1nc2n(n1)CC(NCc1c(Cl)ccc3cccnc13)CC2 (stereo not given)	7.342%
CC1CN(C(=O)c2cccc(OCc3cscn3)c2)CCO1 (stereo not given)	1.345%
O=C(Nc1ccccc1)c1nn(C2CCS(=O)(=O)C2)c2c1CCCC2 (stereo not given)	4.655%
O=C(c1ccccc1F)N1C[C@@H]2COC[C@]2(COCc2cccnc2)C1	-3.597%